Reference: the supplement of paper PMC10849652
The other results are listed elsewhere or left out.

By UniProt entry, the sequences of proteins in these tests, tags left out. Where a name states a change or a piece, a line headed by the entry shows the natural chain unless it says otherwise.
UniProt Q8WUX2: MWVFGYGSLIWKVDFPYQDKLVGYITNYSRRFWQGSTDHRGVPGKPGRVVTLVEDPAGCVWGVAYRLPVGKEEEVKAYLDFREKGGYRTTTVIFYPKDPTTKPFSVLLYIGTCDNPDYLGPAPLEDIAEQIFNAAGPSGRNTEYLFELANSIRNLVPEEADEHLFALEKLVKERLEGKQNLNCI
UniProt Q66GS9: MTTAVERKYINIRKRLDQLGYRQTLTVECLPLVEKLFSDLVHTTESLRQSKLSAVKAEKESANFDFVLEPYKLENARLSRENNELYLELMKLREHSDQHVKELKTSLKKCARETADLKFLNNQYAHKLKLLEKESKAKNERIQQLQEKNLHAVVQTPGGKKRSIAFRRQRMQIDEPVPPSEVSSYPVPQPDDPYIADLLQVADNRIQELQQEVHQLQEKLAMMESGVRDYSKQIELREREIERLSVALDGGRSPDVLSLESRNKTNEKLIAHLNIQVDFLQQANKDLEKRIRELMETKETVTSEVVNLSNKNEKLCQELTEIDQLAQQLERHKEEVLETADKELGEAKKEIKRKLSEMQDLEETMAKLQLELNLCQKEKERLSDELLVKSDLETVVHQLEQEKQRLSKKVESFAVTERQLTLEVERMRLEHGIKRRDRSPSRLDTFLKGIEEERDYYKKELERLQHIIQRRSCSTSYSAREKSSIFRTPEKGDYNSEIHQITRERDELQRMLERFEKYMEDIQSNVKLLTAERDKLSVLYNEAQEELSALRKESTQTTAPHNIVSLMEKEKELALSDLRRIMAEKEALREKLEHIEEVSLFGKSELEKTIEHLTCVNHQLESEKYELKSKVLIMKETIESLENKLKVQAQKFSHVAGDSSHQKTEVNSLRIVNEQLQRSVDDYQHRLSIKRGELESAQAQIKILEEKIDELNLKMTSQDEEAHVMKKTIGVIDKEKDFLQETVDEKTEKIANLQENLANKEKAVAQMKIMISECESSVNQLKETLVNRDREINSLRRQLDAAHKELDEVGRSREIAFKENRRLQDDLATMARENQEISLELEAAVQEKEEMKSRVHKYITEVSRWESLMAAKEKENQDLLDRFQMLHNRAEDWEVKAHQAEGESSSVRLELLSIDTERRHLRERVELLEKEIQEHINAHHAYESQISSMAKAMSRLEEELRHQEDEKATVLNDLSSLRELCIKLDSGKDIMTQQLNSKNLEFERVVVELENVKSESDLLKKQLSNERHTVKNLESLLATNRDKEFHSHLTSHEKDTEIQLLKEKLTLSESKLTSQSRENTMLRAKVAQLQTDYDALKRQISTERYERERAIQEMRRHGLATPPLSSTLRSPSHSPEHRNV
UniProt P11802: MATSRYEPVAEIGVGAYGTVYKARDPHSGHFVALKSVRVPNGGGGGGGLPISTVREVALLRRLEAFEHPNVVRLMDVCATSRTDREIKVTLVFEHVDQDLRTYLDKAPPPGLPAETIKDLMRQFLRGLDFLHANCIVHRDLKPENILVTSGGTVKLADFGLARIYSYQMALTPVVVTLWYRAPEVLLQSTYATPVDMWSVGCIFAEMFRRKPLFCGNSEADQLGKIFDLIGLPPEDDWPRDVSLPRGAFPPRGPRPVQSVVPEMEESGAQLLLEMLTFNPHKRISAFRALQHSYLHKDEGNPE
UniProt Q9NRR8: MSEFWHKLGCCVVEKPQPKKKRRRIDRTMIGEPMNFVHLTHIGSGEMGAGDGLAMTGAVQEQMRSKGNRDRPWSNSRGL
UniProt Q9UHN6: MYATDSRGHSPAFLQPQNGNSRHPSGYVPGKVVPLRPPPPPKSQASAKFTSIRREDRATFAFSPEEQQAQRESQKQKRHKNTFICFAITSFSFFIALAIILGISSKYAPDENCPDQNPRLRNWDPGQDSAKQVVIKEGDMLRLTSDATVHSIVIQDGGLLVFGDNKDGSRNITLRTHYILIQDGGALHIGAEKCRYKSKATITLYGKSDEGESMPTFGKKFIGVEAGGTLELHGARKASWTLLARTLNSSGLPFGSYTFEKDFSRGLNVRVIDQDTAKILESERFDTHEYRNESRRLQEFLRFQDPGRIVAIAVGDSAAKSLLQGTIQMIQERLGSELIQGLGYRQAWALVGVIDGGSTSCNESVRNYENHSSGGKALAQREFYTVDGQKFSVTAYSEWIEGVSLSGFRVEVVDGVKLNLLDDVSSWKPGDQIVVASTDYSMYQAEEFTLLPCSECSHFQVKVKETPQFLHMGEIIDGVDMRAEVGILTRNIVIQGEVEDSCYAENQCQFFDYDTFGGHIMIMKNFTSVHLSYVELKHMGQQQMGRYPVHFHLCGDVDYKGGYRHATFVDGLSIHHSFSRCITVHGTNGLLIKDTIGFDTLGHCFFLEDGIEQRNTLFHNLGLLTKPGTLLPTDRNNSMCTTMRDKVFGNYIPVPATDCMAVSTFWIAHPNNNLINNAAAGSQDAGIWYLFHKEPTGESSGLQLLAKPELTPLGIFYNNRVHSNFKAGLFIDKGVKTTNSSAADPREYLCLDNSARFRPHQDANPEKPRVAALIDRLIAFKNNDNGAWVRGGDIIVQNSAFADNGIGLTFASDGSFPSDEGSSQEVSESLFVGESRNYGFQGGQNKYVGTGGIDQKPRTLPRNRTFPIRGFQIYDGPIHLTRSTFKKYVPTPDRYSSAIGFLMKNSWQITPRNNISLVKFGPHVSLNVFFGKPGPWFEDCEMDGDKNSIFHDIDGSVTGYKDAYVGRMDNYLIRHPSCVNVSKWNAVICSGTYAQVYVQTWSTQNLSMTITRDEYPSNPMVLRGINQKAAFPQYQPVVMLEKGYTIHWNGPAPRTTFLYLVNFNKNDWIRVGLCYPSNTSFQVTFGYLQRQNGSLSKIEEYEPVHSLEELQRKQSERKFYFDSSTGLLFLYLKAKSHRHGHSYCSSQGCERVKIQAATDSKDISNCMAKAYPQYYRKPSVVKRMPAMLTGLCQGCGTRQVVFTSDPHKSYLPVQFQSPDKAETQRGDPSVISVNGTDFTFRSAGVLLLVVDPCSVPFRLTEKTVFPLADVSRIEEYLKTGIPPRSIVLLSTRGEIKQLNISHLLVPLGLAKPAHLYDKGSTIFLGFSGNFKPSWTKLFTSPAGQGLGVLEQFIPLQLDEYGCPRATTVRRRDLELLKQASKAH
UniProt P42773: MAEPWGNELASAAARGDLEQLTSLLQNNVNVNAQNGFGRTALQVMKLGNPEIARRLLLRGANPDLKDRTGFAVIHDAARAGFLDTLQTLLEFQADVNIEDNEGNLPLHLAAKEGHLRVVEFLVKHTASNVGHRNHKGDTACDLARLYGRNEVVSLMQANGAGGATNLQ
UniProt Q6ZTR5: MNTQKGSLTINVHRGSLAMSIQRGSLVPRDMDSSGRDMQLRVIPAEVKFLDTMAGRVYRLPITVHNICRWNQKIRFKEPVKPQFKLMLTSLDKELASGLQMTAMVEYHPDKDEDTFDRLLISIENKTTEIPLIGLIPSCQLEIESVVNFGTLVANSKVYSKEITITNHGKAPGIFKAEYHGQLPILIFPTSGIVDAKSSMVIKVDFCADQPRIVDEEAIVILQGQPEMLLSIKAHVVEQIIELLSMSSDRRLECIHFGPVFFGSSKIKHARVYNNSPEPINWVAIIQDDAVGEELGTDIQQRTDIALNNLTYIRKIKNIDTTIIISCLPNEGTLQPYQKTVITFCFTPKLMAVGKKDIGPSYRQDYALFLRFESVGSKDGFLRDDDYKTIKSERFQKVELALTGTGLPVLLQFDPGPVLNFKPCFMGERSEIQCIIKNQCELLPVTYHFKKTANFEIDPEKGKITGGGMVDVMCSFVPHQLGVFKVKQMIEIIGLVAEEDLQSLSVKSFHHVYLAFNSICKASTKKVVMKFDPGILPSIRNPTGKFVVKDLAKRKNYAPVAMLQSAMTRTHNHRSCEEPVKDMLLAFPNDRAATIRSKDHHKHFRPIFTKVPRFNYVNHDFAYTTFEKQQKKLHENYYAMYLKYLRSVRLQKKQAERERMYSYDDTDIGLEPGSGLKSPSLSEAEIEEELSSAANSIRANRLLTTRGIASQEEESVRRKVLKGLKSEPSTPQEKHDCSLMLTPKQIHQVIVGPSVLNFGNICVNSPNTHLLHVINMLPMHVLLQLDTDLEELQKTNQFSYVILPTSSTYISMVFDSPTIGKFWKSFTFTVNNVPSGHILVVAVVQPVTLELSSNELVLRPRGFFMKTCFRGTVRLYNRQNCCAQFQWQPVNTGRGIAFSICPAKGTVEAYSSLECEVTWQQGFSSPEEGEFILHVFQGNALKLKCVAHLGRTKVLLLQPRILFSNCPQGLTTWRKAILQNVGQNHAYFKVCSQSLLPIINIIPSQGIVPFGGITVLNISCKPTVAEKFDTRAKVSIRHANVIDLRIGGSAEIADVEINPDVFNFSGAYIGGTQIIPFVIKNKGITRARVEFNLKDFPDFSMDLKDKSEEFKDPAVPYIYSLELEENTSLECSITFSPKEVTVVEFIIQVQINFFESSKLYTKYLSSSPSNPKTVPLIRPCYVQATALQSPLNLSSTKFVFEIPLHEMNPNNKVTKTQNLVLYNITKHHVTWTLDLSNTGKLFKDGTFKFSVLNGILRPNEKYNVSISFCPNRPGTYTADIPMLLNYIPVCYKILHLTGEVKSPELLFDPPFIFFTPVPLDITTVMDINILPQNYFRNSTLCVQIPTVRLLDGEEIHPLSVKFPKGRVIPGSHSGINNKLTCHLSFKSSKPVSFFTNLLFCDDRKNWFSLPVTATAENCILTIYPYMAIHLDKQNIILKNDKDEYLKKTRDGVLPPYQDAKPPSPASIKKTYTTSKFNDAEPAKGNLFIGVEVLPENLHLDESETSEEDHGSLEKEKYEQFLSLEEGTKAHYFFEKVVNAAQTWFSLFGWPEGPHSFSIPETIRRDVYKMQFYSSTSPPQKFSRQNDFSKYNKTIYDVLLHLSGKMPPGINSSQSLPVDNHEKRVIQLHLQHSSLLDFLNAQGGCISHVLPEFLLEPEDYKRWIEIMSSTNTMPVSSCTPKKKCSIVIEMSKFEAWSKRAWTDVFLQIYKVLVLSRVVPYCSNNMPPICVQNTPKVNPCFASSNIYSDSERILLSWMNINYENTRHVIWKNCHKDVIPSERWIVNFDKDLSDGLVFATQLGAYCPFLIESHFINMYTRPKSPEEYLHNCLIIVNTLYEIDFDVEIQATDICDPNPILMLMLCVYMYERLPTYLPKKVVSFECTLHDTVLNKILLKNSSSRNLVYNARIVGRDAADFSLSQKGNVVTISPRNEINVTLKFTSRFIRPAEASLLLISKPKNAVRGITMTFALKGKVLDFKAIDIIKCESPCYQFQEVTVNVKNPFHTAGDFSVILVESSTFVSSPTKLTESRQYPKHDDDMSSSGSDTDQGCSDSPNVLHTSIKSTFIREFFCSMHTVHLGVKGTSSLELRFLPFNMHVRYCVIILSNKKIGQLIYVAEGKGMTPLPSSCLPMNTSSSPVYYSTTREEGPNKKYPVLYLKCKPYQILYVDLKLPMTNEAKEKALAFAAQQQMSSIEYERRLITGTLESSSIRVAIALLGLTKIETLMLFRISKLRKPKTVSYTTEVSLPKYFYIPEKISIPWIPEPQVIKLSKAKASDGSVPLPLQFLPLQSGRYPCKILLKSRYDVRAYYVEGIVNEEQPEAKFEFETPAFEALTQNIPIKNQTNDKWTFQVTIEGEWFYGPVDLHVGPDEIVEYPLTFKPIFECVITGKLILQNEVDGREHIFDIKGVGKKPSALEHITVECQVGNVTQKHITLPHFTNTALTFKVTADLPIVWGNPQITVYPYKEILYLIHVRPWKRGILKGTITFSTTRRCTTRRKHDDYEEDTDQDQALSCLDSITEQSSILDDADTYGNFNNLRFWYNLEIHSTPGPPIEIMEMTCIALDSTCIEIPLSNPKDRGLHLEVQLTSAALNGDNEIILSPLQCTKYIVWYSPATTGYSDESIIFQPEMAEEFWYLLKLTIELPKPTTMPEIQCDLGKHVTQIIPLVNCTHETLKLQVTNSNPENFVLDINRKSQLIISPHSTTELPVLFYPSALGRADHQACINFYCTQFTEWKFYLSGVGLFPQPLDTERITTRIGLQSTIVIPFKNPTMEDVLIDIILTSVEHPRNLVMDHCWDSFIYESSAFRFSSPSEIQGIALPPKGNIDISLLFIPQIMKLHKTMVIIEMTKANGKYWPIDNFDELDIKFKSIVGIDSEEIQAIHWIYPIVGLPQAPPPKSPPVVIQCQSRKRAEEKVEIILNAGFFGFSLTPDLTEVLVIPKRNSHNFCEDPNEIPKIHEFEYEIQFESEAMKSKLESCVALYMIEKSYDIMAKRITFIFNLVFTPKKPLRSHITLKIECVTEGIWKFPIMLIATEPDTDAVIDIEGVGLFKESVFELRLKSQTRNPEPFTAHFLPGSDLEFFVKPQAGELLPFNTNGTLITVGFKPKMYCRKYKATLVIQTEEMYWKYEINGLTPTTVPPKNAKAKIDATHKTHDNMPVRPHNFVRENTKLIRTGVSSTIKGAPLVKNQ
UniProt P53567: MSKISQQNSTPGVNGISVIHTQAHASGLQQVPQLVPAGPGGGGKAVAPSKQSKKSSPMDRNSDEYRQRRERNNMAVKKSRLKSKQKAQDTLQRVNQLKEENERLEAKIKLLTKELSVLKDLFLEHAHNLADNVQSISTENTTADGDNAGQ

How the values were obtained:
Test in all cases: log2 fold change, soluble protein after heating vs DMSO (PISA); higher = thermal stabilisation; K562 cells, 10 uM, 30 min; active = over 0.2 and 3.5 SD of the protein, either way, in both replicates (recomputed)
[1] = compound: CC[C@@H]1C(=O)N(C)c2cnc(Nc3ccc(C(=O)NC4CCN(C)CC4)cc3OC)nc2N1C1CCCC1
In short: (§1)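 Soluble protein was quantified by TMTpro 16plex LC-MS/MS after channel sums were equalised. It was obtained as the supernatant after 21,000xg for 90 min from pooled aliquots of K562 cells (2×10^6 cells/mL, 10 μM compound, 30 min) heated for 3 min across 48°C-58°C and extracted in PBS with 0.5% NP-40 at 4°C. Thermal stability values are relative to control samples and come from duplicates. They are given as log2 fold changes.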

volasertib = compound: CC[C@@H]1C(=O)N(C)c2cnc(Nc3ccc(C(=O)N[C@H]4CC[C@H](N5CCN(CC6CC6)CC5)CC4)cc3OC)nc2N1C(C)C [volasertib]
In short: as §1

[2] = compound: CC[C@H](C)N1C=C(C2=C(C=C(C=C21)C3=CN=C(C=C3)N4CCNCC4)C(=O)NCC5=C(C=C(NC5=O)C)C)C
In short: as §1

epoxomicin = compound: CC[C@H](C)[C@@H](C(=O)N[C@@H]([C@@H](C)O)C(=O)N[C@@H](CC(C)C)C(=O)[C@]1(CO1)C)NC(=O)[C@H]([C@@H](C)CC)N(C)C(=O)C [epoxomicin]
In short: as §1

[3] = compound: CCn1cc(-c2ccnc3[nH]c(-c4cccc(CN(C)C)c4)cc23)c(-c2ccc(NC(=O)N(C)C)cc2)n1
In short: as §1

[4] = compound: CN(C)CC(=O)Nc1ccc2[nH]c(=O)c3ccccc3c2c1
In short: as §1

[5] = compound: CN1C2=C(C3=C1C(=O)N(N=C3)CC4=CC(=CC=C4)N)SC(=C2)S(=O)C
In short: as §1

[6] = compound: CN1CCC(CNc2ccc3ncc(-c4cccc(OC(F)(F)F)c4)n3n2)CC1
In short: as §1

saracatinib = compound: CN1CCN(CCOc2cc(OC3CCOCC3)c3c(Nc4c(Cl)ccc5c4OCO5)ncnc3c2)CC1 [saracatinib]
In short: as §1

sotrastaurin = compound: CN1CCN(c2nc(C3=C(c4c[nH]c5ccccc45)C(=O)NC3=O)c3ccccc3n2)CC1 [sotrastaurin]
In short: as §1

Tubastatin A = compound: CN1CCc2c(c3ccccc3n2Cc2ccc(C(=O)NO)cc2)C1 [Tubastatin A]
In short: as §1

[7] = compound: CNC(=O)C1=CC=CC=C1NC2=NC(=NC=C2Cl)NC3=C(C=C(C=C3)N4CCOCC4)OC
In short: as §1

defactinib = compound: CNC(=O)c1ccc(Nc2ncc(C(F)(F)F)c(NCc3nccnc3N(C)S(C)(=O)=O)n2)cc1 [defactinib]
In short: as §1

rucaparib = compound: CNCc1ccc(-c2[nH]c3cc(F)cc4c3c2CCNC4=O)cc1 [rucaparib]
In short: as §1

[8] = compound: CNc1nc(-c2ccc3c(N)n[nH]c3c2)cc(N2C[C@@H](C(=O)NC3CCCCC3)CC[C@H]2C)n1
In short: as §1

encorafenib = compound: COC(=O)N[C@@H](C)CNc1nccc(-c2cn(C(C)C)nc2-c2cc(Cl)cc(NS(C)(=O)=O)c2F)n1 [encorafenib]
In short: as §1

[9] = compound: COC(=O)[C@H](CCSC)NC(=O)C1=C(C=C(C=C1)NC[C@H](CS)N)C2=CC=CC=C2
In short: as §1

rosiglitazone = compound: CN(CCOC1=CC=C(C=C1)C[C@H]2C(=O)NC(=O)S2)C3=CC=CC=N3 (racemic) [rosiglitazone]
In short: as §1

alvocidib = compound: CN1CC[C@H](c2c(O)cc(O)c3c(=O)cc(-c4ccccc4Cl)oc23)[C@H](O)C1 [alvocidib]
In short: as §1

[10] = compound: CCn1c(C(=O)N(C2CC2)C2CC2)cc2c3c(ncn3C)c(Nc3cc(C)n(C)n3)nc21
In short: as §1

Target	log2 fold change [1]	log2 fold change (volasertib)	log2 fold change [2]	log2 fold change (epoxomicin)	log2 fold change [3]	log2 fold change [4]	log2 fold change [5]	log2 fold change [6]	log2 fold change (saracatinib)	log2 fold change (sotrastaurin)	log2 fold change (Tubastatin A)	log2 fold change [7]	log2 fold change (defactinib)	log2 fold change (rucaparib)	log2 fold change [8]	log2 fold change (encorafenib)	log2 fold change [9]	log2 fold change (rosiglitazone)	log2 fold change (alvocidib)	log2 fold change [10]
CHAC2 (UniProt Q8WUX2)	active: -0.343	inactive: -0.227	inactive: 0.035	inactive: -0.025	inactive: -0.03	inactive: 0.002	inactive: -0.04	inactive: 0.041	inactive: -0.016	inactive: -0.028	inactive: -0.02	inactive: -0.02	inactive: -0.07	inactive: 0.122	inactive: -0.05	inactive: 0.237	inactive: 0.025	–	–	–
CEP135 (UniProt Q66GS9)	inactive: -0.078	–	–	inactive: 0.108	inactive: -0.079	–	inactive: 0.171	inactive: 0.206	inactive: -0.142	inactive: -0.305	–	–	–	inactive: 0.072	inactive: 0.437	inactive: -0.189	–	inactive: 0.196	inactive: 0.116	–
CDK4 (UniProt P11802)	inactive: 0.16	inactive: 0.071	inactive: 0.117	inactive: 0.16	–	inactive: -0.085	inactive: 0.146	–	inactive: -0.03	inactive: -0.028	–	inactive: 0.07	inactive: -0.039	inactive: 0.051	inactive: -0.057	inactive: -0.008	inactive: -0.07	–	–	–
CEP152 (UniProt O94986)	inactive: -0.17	inactive: -0.107	inactive: -0.296	–	inactive: -0.026	inactive: -0.094	–	inactive: -0.407	–	inactive: -0.094	inactive: 0.046	inactive: -0.285	inactive: -0.044	inactive: -0.092	–	inactive: -0.015	inactive: 0.101	inactive: 0.157	–	inactive: -0.078
CDC42SE1 (UniProt Q9NRR8)	active: -0.995	active: -2.6	inactive: -0.127	inactive: 0.031	–	inactive: 0.05	inactive: -0.074	–	inactive: 0.074	inactive: -0.033	active: -0.562	inactive: 0.228	inactive: -0.041	inactive: 0.087	inactive: 0.01	inactive: -0.032	inactive: 0.077	–	–	–
CDR2L (UniProt Q86X02)	inactive: -0.168	–	–	–	inactive: -0.072	inactive: 0.052	inactive: -0.034	inactive: 0.03	inactive: 0.063	–	inactive: 0.043	inactive: -0.128	inactive: -0.06	inactive: -0.053	inactive: -0.034	inactive: -0.126	inactive: -0.013	–	inactive: -0.266	inactive: -0.052
CEMIP2 (UniProt Q9UHN6)	inactive: -0.209	inactive: -0.364	inactive: -0.142	inactive: 0.058	inactive: -0.088	inactive: -0.049	inactive: 0.032	inactive: 0.123	inactive: -0.104	–	inactive: -0.005	inactive: 0.032	inactive: 0.017	inactive: 0.046	inactive: -0.026	inactive: -0.1	inactive: 0.029	–	–	–
CDKN2C (UniProt P42773)	inactive: 0.057	inactive: -0.085	inactive: -0.071	–	inactive: -0.001	inactive: -0.008	inactive: -0.018	inactive: 0.054	inactive: -0.083	inactive: -0.013	inactive: -0.08	inactive: -0.017	inactive: 0.041	inactive: -0.031	inactive: 0.083	inactive: -0.026	inactive: -0.066	inactive: 0.029	inactive: -0.189	inactive: -0.01
CFAP47 (UniProt Q6ZTR5)	inactive: 0.063	inactive: 0.065	–	inactive: -0.006	–	inactive: -0.248	inactive: 0.23	–	inactive: 0.001	–	–	–	inactive: -0.063	inactive: -0.062	inactive: -0.142	inactive: -0.173	inactive: 0.084	–	–	–
CEBPG (UniProt P53567)	inactive: 0.008	inactive: 0.132	inactive: -0.395	–	inactive: 0.081	–	–	inactive: 0.098	–	–	–	–	–	inactive: 0.15	–	inactive: -0.095	–	–	inactive: -0.062	–

Fetched one by one from the list above (2):
Target	log2 fold change [1]	log2 fold change (volasertib)	log2 fold change [2]	log2 fold change (epoxomicin)	log2 fold change [3]	log2 fold change [4]	log2 fold change [5]	log2 fold change [6]	log2 fold change (saracatinib)	log2 fold change (sotrastaurin)	log2 fold change (Tubastatin A)	log2 fold change [7]	log2 fold change (defactinib)	log2 fold change (rucaparib)	log2 fold change [8]	log2 fold change (encorafenib)	log2 fold change [9]	log2 fold change (rosiglitazone)	log2 fold change (alvocidib)	log2 fold change [10]
CDC42SE1 (UniProt Q9NRR8)	active: -0.995	active: -2.6	inactive: -0.127	inactive: 0.031	–	inactive: 0.05	inactive: -0.074	–	inactive: 0.074	inactive: -0.033	active: -0.562	inactive: 0.228	inactive: -0.041	inactive: 0.087	inactive: 0.01	inactive: -0.032	inactive: 0.077	–	–	–
CEP135 (UniProt Q66GS9)	inactive: -0.078	–	–	inactive: 0.108	inactive: -0.079	–	inactive: 0.171	inactive: 0.206	inactive: -0.142	inactive: -0.305	–	–	–	inactive: 0.072	inactive: 0.437	inactive: -0.189	–	inactive: 0.196	inactive: 0.116	–
